The chains behind the UniProt entries cited, without tags or fusion partners. Residues count along the entry.
UniProt Q02790, 50-138 limits assumed: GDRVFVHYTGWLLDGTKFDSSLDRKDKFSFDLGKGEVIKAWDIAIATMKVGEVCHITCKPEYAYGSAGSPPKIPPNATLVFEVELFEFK
UniProt Q13451, 42-130 limits assumed: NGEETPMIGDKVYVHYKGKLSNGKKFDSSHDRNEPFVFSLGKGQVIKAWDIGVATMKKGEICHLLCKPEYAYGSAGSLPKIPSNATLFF

According to US9914732B2, “Diazabicyclo[4.3.1]decane derivatives for treatment of psychiatric disorders” (Max-Planck-Gesellschaft zur Forderung der Wissenschaften …, priority 2014, dated 2018):

Columns and labels:
[1] = target: FKBP52 (Homo sapiens, UniProt Q02790); assay: Fluorescence polarization (FP) assay, binding to the FK506-binding domain of FKBP52; details: read-out: FKBP52 Ki; FK506-binding domain of FKBP52 (FKBP52FK1), competition with fluorescent ligand 2b
Experimental: (§1) In the present invention, in vitro fluorescence polarization assays with the compounds of the general formula (I) were performed to determine the binding affinities to FKBP51 and FKBP52 or to the isolated FK506-binding domains of FKBP51 and FKBP52 ([…]). Binding to the isolated FK506-binding domains is reliably indicative of binding to the full length proteins. The affinities for the isolated FK506-binding domains and for full-length FKBP51 or FKBP52 are the same for all compounds tested so far (Kozany et al, ChemBioChem 2009, 10, 1402-1410).
(§2) Example 11: Fluorescence Polarization (FP) Assays
(§3) In-vitro fluorescence polarization assays were performed to determine the binding affinities for FKBP51 and 52 according to a literature procedure (Kozany, C.; Marz, A.; Kress, C.; Hausch, F., Fluorescent probes to characterise FK506-binding proteins. Chembiochem 2009, 10, (8), 1402-10).
(§4) For fluorescence polarization assays the fluorescent ligand 2b was dissolved in HEPES (20 mm, pH 8), Triton-X100 (0.01%), at double the concentration required for the final sample. […]
(§5) The samples were transferred to black 384-well assay plates (No.: 3575; Corning Life Sciences). After incubation at room temperature for 30 min the fluorescence anisotropy was measured (GENios Pro, Tecan, Männedorf, Switzerland) by using an excitation filters of 485/20 nm and emission filters of 535/25 nm. […]

[2] = target: FKBP51 (Homo sapiens, UniProt Q13451); assay: Fluorescence polarization (FP) assay, binding to the FK506-binding domain of FKBP51; details: read-out: FKBP51 Ki; FK506-binding domain of FKBP51 (FKBP51FK1), competition with fluorescent ligand 2b
Experimental: as §1, §2, §3, §4, §5

C#CCN1C[C@H](COC)[C@H]2CCC[C@@H](C1=O)N2S(=O)(=O)c1cccc(F)c1
Ki [1]: 100 to 500 nM
Ki [2]: 100 to 500 nM

The match of structure and compound is tentative.
